Data reported in PubChem BioAssay (EPA / NIEHS).
Where “and” joins values, the source holds several entries; their conditions need not be identical. Identical values can stand only once. This list was built around the results that the source calls inconclusive (neither active nor inactive); the mix of calls is not that of the screen. For part of these data: Where the call is inconclusive, the potency comes from a doubtful curve fit. Some structures have more than one record in an assay (separate samples or runs), and their calls can disagree. Calls of active or inactive are those of the source. How the source made its calls: active means hit-call score of the fitted dose curve at least 0.9, where 1 is the maximum; inconclusive means response in the unintended direction; inactive means score below 0.9.

Sequences of proteins named here, by UniProt entry; tags and fusion partners are left off. A change or cut given only in a name is not applied to a line headed by its entry.
UniProt P19793: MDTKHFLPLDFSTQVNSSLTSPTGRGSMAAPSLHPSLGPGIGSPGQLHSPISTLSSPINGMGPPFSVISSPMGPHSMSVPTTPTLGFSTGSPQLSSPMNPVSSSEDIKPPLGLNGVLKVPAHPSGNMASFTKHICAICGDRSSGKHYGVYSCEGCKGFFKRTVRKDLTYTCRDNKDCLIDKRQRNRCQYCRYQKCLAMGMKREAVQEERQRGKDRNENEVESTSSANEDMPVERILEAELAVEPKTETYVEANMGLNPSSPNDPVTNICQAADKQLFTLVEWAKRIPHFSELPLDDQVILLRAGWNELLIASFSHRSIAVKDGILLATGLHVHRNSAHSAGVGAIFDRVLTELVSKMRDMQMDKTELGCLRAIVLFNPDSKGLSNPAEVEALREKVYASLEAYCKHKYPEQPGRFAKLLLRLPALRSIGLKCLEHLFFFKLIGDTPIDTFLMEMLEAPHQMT
UniProt P04637, whole entry, looked up: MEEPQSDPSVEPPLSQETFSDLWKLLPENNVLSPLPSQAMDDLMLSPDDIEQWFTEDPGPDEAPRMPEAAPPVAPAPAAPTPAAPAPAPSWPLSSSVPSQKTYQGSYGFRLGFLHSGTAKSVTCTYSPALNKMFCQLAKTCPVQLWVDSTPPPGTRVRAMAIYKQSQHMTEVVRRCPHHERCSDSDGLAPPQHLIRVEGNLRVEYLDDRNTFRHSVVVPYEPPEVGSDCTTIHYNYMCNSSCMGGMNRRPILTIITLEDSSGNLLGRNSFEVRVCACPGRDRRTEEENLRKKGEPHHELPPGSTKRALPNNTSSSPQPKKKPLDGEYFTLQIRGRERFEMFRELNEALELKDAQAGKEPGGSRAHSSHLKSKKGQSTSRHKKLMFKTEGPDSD

Tests used:
[1] = biological target: Retinoic acid receptor RXR-alpha (Homo sapiens) (UniProt P19793); experiment: OT_NURR1_NURR1RXRa_0480: Odyssey Thera (OT) 8-hour HEK293T Protein Complementation Assay for Nurr1/retinoid X receptor (RXR) (AID 2283385)
How it was run: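 HEK293T cells expressing Nurr1 and RXRα fused to reporter fragments were dosed with compound for 8 hours. Complex formation was read as fluorescence intensity and analysed as gain of signal against DMSO as baseline.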

[2] = biological target: Retinoic acid receptor RXR-alpha (Homo sapiens) (UniProt P19793); experiment: OT_NURR1_NURR1RXRa_1440: Odyssey Thera (OT) 24-hour HEK293T Protein Complementation Assay for Nurr1/retinoid X receptor (RXR) (AID 2283386)
How it was run: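 HEK293T cells were dosed with compound and read 24 h later by fluorescence intensity in a protein-fragment complementation format, where Nurr1–RXRα interaction reconstitutes a split reporter. Activity was fitted as gain of signal relative to DMSO baseline.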

[3] = TOX21_p53_BLA_p2_viability: Viability Assessment in the Tox21 HCT-116 p53 Agonism Beta-lactamase Assay, Phase 2 (AID 2283591);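 further: compound exposure lasted 16 h at 37 °C; actives lower the ATP signal meaning cytotoxicity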
How it was run: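 HCT116 p53-bla cells, 4000/well, dosed after 5 h plating (217-fold dilution of DMSO stocks) and incubated 16 h at 37C. Viability taken as cellular ATP by CellTiter-Glo luminescence after 30 min RT; signal loss marks cytotoxicity.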

[4] = biological target: Cellular tumor antigen p53 (Homo sapiens) (UniProt P04637); experiment: TOX21_p53_BLA_p2_ratio: Tox21 HCT-116 p53 Agonism Beta-lactamase Assay, Ratio, Phase 2 (AID 2283592)
How it was run: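 HCT116 cells carrying a p53-responsive beta-lactamase reporter were plated, incubated 5 h at 37C, then dosed with compounds in DMSO (217-fold dilution) for 16 h. CCF4-AM substrate was added for 2 h at room temperature; the 460/530 nm emission ratio gave gain-of-signal activity relative to DMSO.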

[5] = TOX21_p53_BLA_p3_viability: Viability Assessment in the Tox21 HCT-116 p53 Agonism Beta-lactamase Assay, Phase 3 (AID 2283593);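 further: cells exposed to compound for 16 h before reading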
How it was run: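 HCT116 cells, 4000/well, dosed 5 h after plating by pin transfer (217-fold dilution from DMSO stock) and incubated 16 h at 37C, 5% CO2. Viability read as ATP luminescence with CellTiter-Glo after 30 min at room temperature.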

[6] = biological target: Cellular tumor antigen p53 (Homo sapiens) (UniProt P04637); experiment: TOX21_p53_BLA_p3_ratio: Tox21 HCT-116 p53 Agonism Beta-lactamase Assay, Ratio, Phase 3 (AID 2283596)
How it was run: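 HCT116 p53-bla cells (4000/well) given compound in DMSO (217-fold dilution) after 5 h, incubated 16 h at 37C. CCF4-AM substrate 2 h at room temperature; 460/530 nm emission ratio, gain fitted against DMSO.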

[7] = ATG_XTT_Cytotoxicity: Cytotoxicity Assessment in the Attagene TRANS-FACTORIAL HepG2 Assay (AID 2283584)
How it was run: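 HepG2 human liver cells, transiently transfected with multiple GAL4-UAS reporter units, were dosed and read at 24 h by XTT as cell number. Loss of signal was fitted relative to DMSO negative control baseline.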

## O=C(OC[C@H]1O[C@@H](OC(=O)c2cc(O)c(O)c(OC(=O)c3cc(O)c(O)c(O)c3)c2)[C@H](OC(=O)c2cc(O)c(O)c(OC(=O)c3cc(O)c(O)c(O)c3)c2)[C@@H](OC(=O)c2cc(O)c(O)c(OC(=O)c3cc(O)c(O)c(O)c3)c2)[C@@H]1OC(=O)c1cc(O)c(O)c(OC(=O)c2cc(O)c(O)c(O)c2)c1)c1cc(O)c(O)c(OC(=O)c2cc(O)c(O)c(O)c2)c1
[1]
  AC50: active: 20.5 µM
[2]
  AC50: active: 15.2 µM
[3]
  AC50: active: 17.2 µM and active: 5.28 µM
[4]
  AC50: active: 12.9 µM and active: 6.14 µM
[5]
  AC50: active: 6.6 µM
[6]
  AC50: active: 11.2 µM and active: 5.34 µM

## CC(=O)O[C@H]1C[C@@H]2CC[C@@]1(C)C2(C)C
[1]
  outcome: inactive
[2]
  AC50: inconclusive: 50 µM
[3]
  AC50: inconclusive: 46.1 µM
[5]
  AC50: inconclusive: 46.1 µM

## c1ccc(Nc2cccc3ccccc23)cc1
[1]
  AC50: active: 77.5 µM
[2]
  AC50: active: 82 µM
[3]
  AC50: active: 71.1 µM
[4]
  AC50: active: 77.1 µM and active: 81.1 µM
[5]
  outcome: inactive

## Nc1nc(Cl)nc2c1ncn2[C@H]1C[C@H](O)[C@@H](CO)O1
[1]
  AC50: active: 50 µM and active: 41.2 µM
[2]
  AC50: active: 46.7 µM and active: 44.1 µM
[4]
  AC50: active: 271 nM and active: 790 nM
[6]
  AC50: active: 468 nM and active: 960 nM

## CC1(C)C(=O)N(Br)C(=O)N1Cl
[1]
  AC50: inconclusive: 1.71 µM
[2]
  AC50: inconclusive: 50 µM
[3]
  AC50: inconclusive: 46.1 µM
[4]
  outcome: inactive
[6]
  AC50: inconclusive: 46.1 µM

## CN[C@H]1CC[C@@H](c2ccc(Cl)c(Cl)c2)c2ccc(S(N)(=O)=O)cc21
[1]
  AC50: inconclusive: 22 µM and inconclusive: 93.4 µM
[2]
  AC50: inconclusive: 22 µM and inconclusive: 22.6 µM
[3]
  AC50: active: 78.4 µM
[4]
  AC50: active: 87 µM
[5]
  AC50: active: 71.7 µM
[6]
  AC50: active: 86.1 µM

## COC(=O)CCCC(=O)OC
[1]
  outcome: inactive
[2]
  AC50: inconclusive: 50 µM
[3]
  AC50: inconclusive: 46.1 µM
[5]
  AC50: inconclusive: 79.8 µM and inconclusive: 86.1 µM

## c1coc(CNc2ncnc3nc[nH]c23)c1
[1]
  AC50: inconclusive: 13.9 µM
[2]
  AC50: inconclusive: 50 µM
[3]
  outcome: inactive
[4]
  AC50: inconclusive: 46.1 µM
[6]
  AC50: inconclusive: 85.3 µM

## CCCCCCOc1ccc(O)cc1
[1]
  outcome: inactive
[2]
  outcome: inactive
[3]
  AC50: active: 45.6 µM
[4]
  AC50: active: 34 µM
[5]
  outcome: inactive
[6]
  AC50: active: 36.3 µM

## COCCOCCOC
[1]
  AC50: inconclusive: 0.14 µM
[2]
  AC50: inconclusive: 0.477 µM
[3]
  AC50: inconclusive: 46.2 µM
[5]
  AC50: inconclusive: 46.1 µM and inconclusive: 8.75 µM
[6]
  AC50: inconclusive: 46.2 µM

## CCCCCCCCOC(C)=O
[1]
  outcome: inactive
[2]
  outcome: inactive
[3]
  AC50: inconclusive: 46.1 µM
[5]
  AC50: inconclusive: 9.14 µM
[6]
  outcome: inactive

## COc1cc(-c2nc(NC(=O)c3cc4cc(C)cc(C)c4n3CC(=O)O)sc2CCC2CCCCC2)c(OC)cc1Cl
[1]
  AC50: active: 10.3 µM and active: 10 µM
[2]
  AC50: active: 10.3 µM and active: 9.86 µM
[3]
  AC50: active: 1.65 µM
[4]
  AC50: active: 2.2 µM
[5]
  AC50: active: 5.1 µM
[6]
  AC50: active: 7.74 µM

## CCOc1cccc(-n2cc(C(=O)N3CCN(c4cc(C(=O)O)c5ccccc5c4)CC3)nc2-c2ccc(C)cc2)c1
[1]
  AC50: inconclusive: 48 µM and inconclusive: 43.3 µM
[2]
  AC50: inconclusive: 9.37 µM and inconclusive: 18.1 µM
[3]
  AC50: active: 10.6 µM
[4]
  AC50: active: 18 µM
[5]
  AC50: active: 28.6 µM
[6]
  AC50: active: 41.7 µM

## CCCC[C@H]1CN(CC2CCOCC2)C(=O)OC12CCN(C1(C)CCN(C(=O)c3c(C)ncnc3C)CC1)CC2
[1]
  AC50: inconclusive: 4.05 µM
[7]
  outcome: inactive
[3]
  AC50: inconclusive: 77.8 µM

## Cc1cc(C(C)(C)C)c(O)c(C(C)(C)C)c1
[1]
  AC50: active: 74.6 µM
[2]
  AC50: active: 77.3 µM
[5]
  AC50: inconclusive: 46.1 µM
